Article doi:10.1101/2024.07.12.603302
Results are given in words; binding and its absence hold for the method and conditions named. In cells and extracts the contact can be indirect. Here binding means that the protein was enriched with, or labelled near, the bait; the list need not be complete. For some assays here: Sequences can lack the tags named with a protein. Blank lines part the entries; values can stand above or below the binder they belong to.

The chains behind the UniProt entries cited, without tags or fusion partners. Where a name states a change or a piece, a line headed by the entry shows the natural chain unless it says otherwise.
UniProt P62136: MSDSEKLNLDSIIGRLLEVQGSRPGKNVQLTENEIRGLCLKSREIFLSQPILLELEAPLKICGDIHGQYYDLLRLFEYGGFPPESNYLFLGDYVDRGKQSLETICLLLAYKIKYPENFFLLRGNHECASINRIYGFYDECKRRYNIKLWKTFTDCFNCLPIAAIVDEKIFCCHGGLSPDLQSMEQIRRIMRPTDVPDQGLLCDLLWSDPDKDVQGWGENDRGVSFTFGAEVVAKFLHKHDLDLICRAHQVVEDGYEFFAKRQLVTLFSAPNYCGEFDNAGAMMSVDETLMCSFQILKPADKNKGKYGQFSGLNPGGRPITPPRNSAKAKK

Assays:
[1] = biological target: PP1^H66K-PNUTS fusion: Avitag PP1α (1-304, H66K) linked by SGSGS to PNUTS (408-940) (UniProt P62136); assay: affinity purification with mass spectrometry
[2] = biological target: T1, Full length Avitag-PNUTS 1-940 (UniProt Q96QC0); assay: affinity purification with mass spectrometry
T1 sequence: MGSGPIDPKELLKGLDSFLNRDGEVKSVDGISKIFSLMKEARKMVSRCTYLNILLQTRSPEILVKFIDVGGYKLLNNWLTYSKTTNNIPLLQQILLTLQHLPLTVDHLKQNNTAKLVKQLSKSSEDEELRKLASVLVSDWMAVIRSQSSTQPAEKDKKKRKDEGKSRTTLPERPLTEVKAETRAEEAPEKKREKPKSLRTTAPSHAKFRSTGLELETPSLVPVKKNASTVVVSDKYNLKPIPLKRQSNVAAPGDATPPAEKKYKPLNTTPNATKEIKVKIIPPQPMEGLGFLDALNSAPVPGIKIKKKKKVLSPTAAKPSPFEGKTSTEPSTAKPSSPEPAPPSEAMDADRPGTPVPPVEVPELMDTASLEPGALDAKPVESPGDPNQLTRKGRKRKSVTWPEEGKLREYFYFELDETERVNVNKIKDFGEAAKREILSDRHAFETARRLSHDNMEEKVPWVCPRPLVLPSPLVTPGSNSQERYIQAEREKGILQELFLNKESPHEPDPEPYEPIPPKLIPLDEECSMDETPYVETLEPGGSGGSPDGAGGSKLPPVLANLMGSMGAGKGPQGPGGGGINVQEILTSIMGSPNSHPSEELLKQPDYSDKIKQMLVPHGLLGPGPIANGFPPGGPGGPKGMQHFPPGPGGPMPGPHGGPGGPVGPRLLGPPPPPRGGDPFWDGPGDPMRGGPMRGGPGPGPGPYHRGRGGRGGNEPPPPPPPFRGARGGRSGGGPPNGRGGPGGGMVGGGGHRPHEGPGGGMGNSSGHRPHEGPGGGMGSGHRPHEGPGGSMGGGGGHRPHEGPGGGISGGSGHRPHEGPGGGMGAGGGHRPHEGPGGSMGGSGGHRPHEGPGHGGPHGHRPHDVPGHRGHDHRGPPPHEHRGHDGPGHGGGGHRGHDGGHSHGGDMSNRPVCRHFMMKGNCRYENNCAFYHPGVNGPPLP

B1: FIP1L1 (protein, UniProt Q6UN15 1-594)
chain: MSAGEVERLVSELSGGTGGDEEEEWLYGGPWDVHVHSDLAKDLDENEVERPEEENASANPPSGIEDETAENGVPKPKVTETEDDSDSDSDDDEDDVHVTIGDIKTGAPQYGSYGTAPVNLNIKTGGRVYGTTGTKVKGVDLDAPGSINGVPLLEVDLDSFEDKPWRKPGADLSDYFNYGFNEDTWKAYCEKQKRIRMGLEVIPVTSTTNKITAEDCTMEVTPGAEIQDGRFNLFKVQQGRTGNSEKETALPSTKAEFTSPPSLFKTGLPPSRNSTSSQSQTSTASRKANSSVGKWQDRYGRAESPDLRRLPGAIDVIGQTITISRVEGRRRANENSNIQVLSERSATEVDNNFSKPPPFFPPGAPPTHLPPPPFLPPPPTVSTAPPLIPPPGFPPPPGAPPPSLIPTIESGHSSGYDSRSARAFPYGNVAFPHLPGSAPSWPSLVDTSKQWDYYARREKDRDRERDRDRERDRDRDRERERTRERERERDHSPTPSVFNSDEERYRYREYAERGYERHRASREKEERHRERRHREKEETRHKSSRSNSRRRHESEEGDSHRRHKHKKSKRSKEGKEAGSEPAPEQESTEATPAE
binding [1]: binds

B3: PABPN1 (protein, UniProt Q86U42 1-306)
chain: MAAAAAAAAAAGAAGGRGSGPGRRRHLVPGAGGEAGEGAPGGAGDYGNGLESEELEPEELLLEPEPEPEPEEEPPRPRAPPGAPGPGPGSGAPGSQEEEEEPGLVEGDPGDGAIEDPELEAIKARVREMEEEAEKLKELQNEVEKQMNMSPPPGNAGPVIMSIEEKMEADARSIYVGNVDYGATAEELEAHFHGCGSVNRVTILCDKFSGHPKGFAYIEFSDKESVRTSLALDESLFRGRQIKVIPKRTNRPGISTTDRGFPRARYRARTTNYNSSRSRFYSGFNSRPRGRVYRGRARATSWYSPY
binding [1]: binds

Second part, the binder after the results:

binding [1]: binds
B2: PPP1R7 (protein, UniProt Q15435 1-360)
chain: MAAERGAGQQQSQEMMEVDRRVESEESGDEEGKKHSSGIVADLSEQSLKDGEERGEEDPEEEHELPVDMETINLDRDAEDVDLNHYRIGKIEGFEVLKKVKTLCLRQNLIKCIENLEELQSLRELDLYDNQIKKIENLEALTELEILDISFNLLRNIEGVDKLTRLKKLFLVNNKISKIENLSNLHQLQMLELGSNRIRAIENIDTLTNLESLFLGKNKITKLQNLDALTNLTVLSMQSNRLTKIEGLQNLVNLRELYLSHNGIEVIEGLENNNKLTMLDIASNRIKKIENISHLTELQEFWMNDNLLESWSDLDELKGARSLETVYLERNPLQKDPQYRRKVMLALPSVRQIDATFVRF

binding [2]: binds | binding [1]: binds
B4: PPP1R2 (Inhibitor-2) (protein, UniProt P41236 1-205)
chain: MAASTASHRPIKGILKNKTSTTSSMVASAEQPRGNVDEELSKKSQKWDEMNILATYHPADKDYGLMKIDEPSTPYHSMMGDDEDACSDTEATEAMAPDILARKLAAAEGLEPKYRIQEQESSGEEDSDLSPEEREKKRQFEMKRKLHYNEGLNIKLARQLISKDLHDDDEDEEMLETADGESMNTEESNQGSTPSDQQQNKLRSS
